Measurements: patent publication US10159726B2, “Peptides, combination of peptides and scaffolds for use in immunotherapeutic treatment of various cancers” (Immatics Biotechnologies GmbH, priority 2015, dated 2018)

Experiments:
[1] = system: source genes of selected peptides; assay: Target coverage of source genes in tumor entities based on TCGA Research Network data; design: species or system human; conditions: over-expressed = more than 2-fold above the highest 75% percentile of normal organs; for Target coverage, over-expression category of source gene, BLCA (N = 408): Bladder urothelial carcinoma; for Target coverage, over-expression category of source gene, CESC (N = 307): Cervical squamous cell carcinoma and endocervical adenocarcinoma; for Target coverage, over-expression category of source gene, CHOL (N = 36): Cholangiocarcinoma; for Target coverage, over-expression category of source gene, HNSC (N = 521): Head and neck squamous cell carcinoma; for Target coverage, over-expression category of source gene, LGG (N = 534): Lower grade glioma; for Target coverage, over-expression category of source gene, DLBC (N = 48): Lymphoid neoplasm diffuse large B-cell lymphoma; for Target coverage, over-expression category of source gene, MESO (N = 87): Mesothelioma
[2] = system: HLA-A*24 molecules of primary tumors; assay: Identification and relative LC-MS quantitation of HLA-A*24 tumor-associated peptides presented on tissue samples (XPRESIDENT presentation profiles); design: species or system human; conditions: Table 9A: selected HLA-A*24-binding tumor-associated peptides; cancer entities on which the peptide was found presented

Row | Substance | Target coverage, over-expression category of source gene, BLCA (N = 408) [1] | Target coverage, over-expression category of source gene, CESC (N = 307) [1] | Target coverage, over-expression category of source gene, CHOL (N = 36) [1] | Target coverage, over-expression category of source gene, HNSC (N = 521) [1] | Target coverage, over-expression category of source gene, LGG (N = 534) [1] | Target coverage, over-expression category of source gene, DLBC (N = 48) [1] | Target coverage, over-expression category of source gene, MESO (N = 87) [1] | ENTITIES [2] | Target coverage, over-expression category of source gene, KICH (N = 66) ([1]; Kidney chromophobe) | Target coverage, over-expression category of source gene, KIRP (N = 291) ([1]; Kidney renal papillary cell carcinoma) | Target coverage, over-expression category of source gene, ACC (N = 79) ([1]; Adrenocortical carcinoma)
1 | 397: peptide found in KIF2C (gene looked up) (IYNGKLFDL; listed as Homo sapiens) [compound 397] | A (>=50% of tumors above the cutoff) | A (>=50% of tumors above the cutoff) | C (>=5% of tumors above the cutoff, but <20%) | A (>=50% of tumors above the cutoff) | C (>=5% of tumors above the cutoff, but <20%) | A (>=50% of tumors above the cutoff) | C (>=5% of tumors above the cutoff, but <20%) | GB, NSCLC, GC |  |  | 
2 | 398: peptide found in KIF2C (gene looked up) (IYNGKLFDLL; listed as Homo sapiens) [compound 398] | A (>=50% of tumors above the cutoff) | A (>=50% of tumors above the cutoff) | C (>=5% of tumors above the cutoff, but <20%) | A (>=50% of tumors above the cutoff) | C (>=5% of tumors above the cutoff, but <20%) | A (>=50% of tumors above the cutoff) | C (>=5% of tumors above the cutoff, but <20%) | CRC, GC, RCC, GB, PCA, HCC, NSCLC |  |  | 
3 | 399: peptide found in MET (gene looked up) (SYIDVLPEF; listed as Homo sapiens) [compound 399] |  |  |  |  |  |  | C (>=5% of tumors above the cutoff, but <20%) | HCC, NSCLC, GC, RCC, GB, PCA | B (>=20% of tumors above the cutoff, but <50%) | A (>=50% of tumors above the cutoff) | 
4 | 400: peptide found in MMP1 (gene looked up) (KYLEKYYNL; listed as Homo sapiens) [compound 400] | B (>=20% of tumors above the cutoff, but <50%) | B (>=20% of tumors above the cutoff, but <50%) |  | A (>=50% of tumors above the cutoff) |  | B (>=20% of tumors above the cutoff, but <50%) | C (>=5% of tumors above the cutoff, but <20%) | NSCLC |  |  | 
5 | 401: peptide found in MMP1 (gene looked up) (VFMKDGFFYF; listed as Homo sapiens) [compound 401] | B (>=20% of tumors above the cutoff, but <50%) | B (>=20% of tumors above the cutoff, but <50%) |  | A (>=50% of tumors above the cutoff) |  | B (>=20% of tumors above the cutoff, but <50%) | C (>=5% of tumors above the cutoff, but <20%) | NSCLC, GC, PCA |  |  | 
6 | 403: peptide found in MMP12 (gene looked up) (TYKYVDINTF; listed as Homo sapiens) [compound 403] | C (>=5% of tumors above the cutoff, but <20%) | B (>=20% of tumors above the cutoff, but <50%) |  | B (>=20% of tumors above the cutoff, but <50%) |  | B (>=20% of tumors above the cutoff, but <50%) |  | NSCLC, GC |  |  | 
7 | 404: peptide found in MMP12 (gene looked up) (RYLEKFYGL; listed as Homo sapiens) [compound 404] | C (>=5% of tumors above the cutoff, but <20%) | B (>=20% of tumors above the cutoff, but <50%) |  | B (>=20% of tumors above the cutoff, but <50%) |  | B (>=20% of tumors above the cutoff, but <50%) |  | NSCLC, GC, HCC |  |  | 
8 | 405: peptide found in MMP12 (gene looked up) (NYPKSIHSF; listed as Homo sapiens) [compound 405] | C (>=5% of tumors above the cutoff, but <20%) | B (>=20% of tumors above the cutoff, but <50%) |  | B (>=20% of tumors above the cutoff, but <50%) |  | B (>=20% of tumors above the cutoff, but <50%) |  | NSCLC |  |  | 
9 | 408: peptide found in PLK4 (gene looked up) (QYASRFVQL; listed as Homo sapiens) [compound 408] | B (>=20% of tumors above the cutoff, but <50%) | A (>=50% of tumors above the cutoff) |  | B (>=20% of tumors above the cutoff, but <50%) |  | B (>=20% of tumors above the cutoff, but <50%) |  | GC, GB, HCC, NSCLC |  |  | 
10 | 409: peptide found in RRM2 (gene looked up) (YFISHVLAF; listed as Homo sapiens) [compound 409] | B (>=20% of tumors above the cutoff, but <50%) | A (>=50% of tumors above the cutoff) |  | B (>=20% of tumors above the cutoff, but <50%) |  | B (>=20% of tumors above the cutoff, but <50%) |  | GC, NSCLC |  |  | 
11 | 415: peptide found in PBK (gene looked up) (SYQKVIELF; listed as Homo sapiens) [compound 415] | C (>=5% of tumors above the cutoff, but <20%) | B (>=20% of tumors above the cutoff, but <50%) |  | C (>=5% of tumors above the cutoff, but <20%) | C (>=5% of tumors above the cutoff, but <20%) | C (>=5% of tumors above the cutoff, but <20%) |  | PCA, HCC, NSCLC, CRC, GC, RCC, GB |  |  | C (>=5% of tumors above the cutoff, but <20%)

For some of these results: Expression values are those of the mRNA of the gene that encodes the peptide; a gene is named only where it was looked up.
